Laboratory results: article PMC9085725
Construct, isoform or probe ends are uncertain for at least one entry.

Tested on: mucin 1 protein (MUC1)
Assay: graphene oxide fluorescence quenching/recovery with DNase I amplification
Details: graphene oxide 15 ug/mL, DNase I 2 U/mL, probe 40 nM, MUC1 5 ng/mL; 10 mM Tris, 100 mM NaNO3, pH 7.4; 37 °C 15 min with MUC1, GO 5 min, DNase I 37 °C 15 min; fluorescence read at room temperature; commercial protein; label: 5'-FAM; single-stranded DNA

**Q.** Does “CCCGTCTTCCAGACAAGAGTGCAGGG [MUC1 aptamer (FAM probe)]” bind?
**A.** Result: binds
